Experimental data as given in article PMC12670160, “A drug-repurposing screen of FDA- and EMA-approved drugs identifies two NF-κB inhibitors active against eumycetoma” (Journal of Antimicrobial Chemotherapy, 2025).
Counter-ions that a name gives are not always drawn. The whole screen tested about 5,300 compounds, of which about 130 (2.5%) showed an effect of 50% or more. Some of the results follow.

Tested on: M. mycetomatis strain mm55
Conditions: primary screen, metabolic activity vs growth control; 96 h, 2 µM; inhibitor

Structure (SMILES)	% viability
CCOCc1nc2c(N)nc3ccccc3c2n1CC(C)(C)O [ONC0001869, resiquimod]	79.98%
NC(=O)NC1NC(=O)NC1=O (centres unmarked) [ONC0003841, allantoin]	66.81%
Nc1nc2c(ccc3ccccc32)s1 [ONC0000043, ska31]	123.7%
O=C(O)CNC(=O)c1nc(Cl)c2ccccc2c1O [ONC0001289, fg2216]	75.15%
CCCCCCCCCCCCCCCC(=O)C(F)(F)F [ONC0001696, pacocf3]	62.66%
c1ccc(Oc2nc(NC3CCCCC3)c3[nH]cnc3n2)cc1 [ONC0001307, mrs3777 oxalate]	79.99%
O=C1CCc2ccc(OCCCCN3CCN(c4cccc(Cl)c4Cl)CC3)cc2N1 [ONC0004034, aripiprazole]	69.53%
CN(C)CCOC(c1ccc(Cl)cc1)c1ccccn1 (centres unmarked) [ONC0000751, carbinoxamine maleate]	75.65%
CCCCCOC(=O)Nc1nc(=O)n([C@@H]2O[C@H](C)[C@@H](O)[C@H]2O)cc1F [ONC0004069, capecitabine]	87.95%
COc1cc2c(c(OC)c1OC)-c1c(cc3c(c1OC)OCO3)C[C@H](C)[C@@H](C)C2 [ONC0005204, schisandrin b]	87.3%
CC(C)=CCC/C(C)=C/CC/C(C)=C/CSc1ccccc1C(=O)O [ONC0001366, salirasib]	91.38%
COc1ccc2cc(-c3nc(-c4ccc([S+](C)[O-])cc4)[nH]c3-c3ccncc3)ccc2c1 (centres unmarked) [ONC0004861, tie2 kinase inhibitor]	106.3%
CCNC(=O)[C@H]1O[C@@H](n2cnc3c(N)nc(NCCc4ccc(CCC(=O)O)cc4)nc32)[C@@H](O)[C@@H]1O [ONC0004900, cgs 21680 hcl]	86.91%
COc1ccc(NC(=O)c2ccc(-c3ccc(-c4noc(C)n4)cc3C)cc2)cc1N1CCN(C)CC1 [ONC0001716, gr127935]	118.7%
CCCCNc1ccc(C(=O)OCCN(C)C)cc1 [ONC0000552, tetracaine hydrochloride]	91.69%
NC(=O)C1=CN([C@@H]2O[C@H](COP(=O)(O)OP(=O)(O)OC[C@H]3O[C@@H](n4cnc5c(N)ncnc54)[C@H](OP(=O)(O)O)[C@@H]3O)[C@@H](O)[C@H]2O)C=CC1 [ONC0002212, nadph tetracyclohexanamine]	75.27%
C[C@]1(COc2ccc(N3CCC(Oc4ccc(OC(F)(F)F)cc4)CC3)cc2)Cn2cc([N+](=O)[O-])nc2O1 [ONC0000375, delamanid]	87.74%
C=C[C@@H]1C[C@]1(NC(=O)[C@@H]1C[C@@H]2CN1C(=O)[C@H](C(C)(C)C)NC(=O)O[C@@H]1C[C@H]1CCCCCc1nc3ccc(OC)cc3nc1O2)C(=O)NS(=O)(=O)C1CC1 [ONC0002080, grazoprevir]	68.44%
COc1ncc(-c2ccc3nccc(-c4ccnnc4)c3c2)cc1NS(=O)(=O)c1ccc(F)cc1F [ONC0004334, omipalisib gsk2126458 gsk458]	126.5%
CC(C)(C)/[N+]([O-])=C/c1ccc(S(=O)(=O)O)cc1S(=O)(=O)O [ONC0005107, nxy059 disufenton sodium]	119.4%
CN1CCC(=C2c3ccccc3CCc3sccc32)CC1 [ONC0004270, pizotyline malate]	77.97%

Structure (SMILES)	% viability
CCc1cc(-c2n[nH]c(C)c2-c2ccc3c(c2)OCCO3)c(O)cc1O [ONC0003616, cct018159]	49.48%
COc1ccc(N2CCOCC2)c2sc(NC(=O)N3CCC(C)(O)CC3)nc12 [ONC0001313, tozadenant]	78.27%
N=C(N)NCCCCN [ONC0003495, agmatine sulfate]	64.29%
CN1CCOC(c2ccccc2)c2ccccc2C1 (centres unmarked) [ONC0000697, nefopam]	116%
C[C@H](CSC(=O)c1ccccc1)C(=O)N1C[C@@H](Sc2ccccc2)C[C@H]1C(=O)O [ONC0002285, zofenopril calcium]	89.14%
O=C(Cc1ccc(Cl)c(Cl)c1)N1CCCCC1CN1CCCC1 (centres unmarked) [ONC0003117, brl52537]	77.93%
Brc1c(Br)c(Br)c2[nH]nnc2c1Br [ONC0003695, 4567tetrabromobenzotriazole]	61.11%
O=C1[C@H](CC[C@H](O)c2ccc(F)cc2)[C@@H](c2ccc(O)cc2)N1c1ccc(F)cc1 [ONC0003961, ezetimibe]	73.64%
c1cc(-c2cnn3cc(-c4ccc(OCCN5CCCCC5)cc4)cnc23)ccn1 [ONC0001536, dorsomorphin]	89.15%
O=S(=O)(O)c1cc(I)c(O)c2ncccc12 [ONC0004262, chiniofon]	59.44%
c1cc2c3c(c1)c1c(n3CCNC2)CCCC1 [ONC0000088, way629]	100.3%
O=C(c1cc(S(=O)(=O)Nc2ccccc2F)c(F)cc1Cl)N1CCN2CCC[C@@H]2C1 [ONC0001094, abt639]	70.25%
O=C(Cc1ccccc1)Nc1nc2ccc(Cl)cc2c2nc(-c3ccco3)nn12 [ONC0000800, mrs1220]	83.11%
CN1CCC(NC(=O)c2cc(-c3c(O)cc(O)cc3Oc3ccc([N+](=O)[O-])cc3)on2)CC1 [ONC0005119, nmse973]	137.1%
CC(C)NC[C@H](O)COc1cccc2[nH]ccc12 [ONC0002469, pindolol]	54.49%
CC(C)(N)c1cc(C(=O)N[C@@H]2CCc3ccc(Oc4ccnc5c4CCC(=O)N5)cc3C2)cc(C(F)(F)F)c1 [ONC0000152, ml786]	97.05%
Cc1cc(-c2ncc(CC(=O)Nc3ccc(-c4cnccn4)cn3)cc2C)ccn1 [ONC0005026, lgk974]	76.92%
C=CCNc1c(O)cc2c(O)c1C[C@@H](C)C[C@H](OC)[C@H](O)[C@@H](C)/C=C(\C)[C@H](OC(N)=O)[C@@H](OC)/C=C\C=C(/C)C(=O)N2 [ONC0000815, retaspimycin hydrochloride]	79.52%
CNCC(O)c1ccc(O)cc1 (centres unmarked) [ONC0005413, oxedrine]	69.09%
CC(C)NCC(O)c1ccc(N)c(C#N)c1 (centres unmarked) [ONC0003014, cimaterol]	76.31%
CC(C)c1ccc(NC(=O)c2cccs2)c(-c2nc3ccccc3[nH]c2=O)c1 [ONC0000068, ml281]	104.2%

Some of the entries so far, in markdown:

| Structure (SMILES) | % viability |
| --- | --- |
| CN1CCOC(c2ccccc2)c2ccccc2C1 (centres unmarked) [ONC0000697, nefopam] | 116% |
| C[C@H](CSC(=O)c1ccccc1)C(=O)N1C[C@@H](Sc2ccccc2)C[C@H]1C(=O)O [ONC0002285, zofenopril calcium] | 89.14% |
| O=C(c1cc(S(=O)(=O)Nc2ccccc2F)c(F)cc1Cl)N1CCN2CCC[C@@H]2C1 [ONC0001094, abt639] | 70.25% |

Additional structures follow:

Structure (SMILES)	% viability
CC(COc1ccccc1Cc1ccccc1)N1CCCCC1 (centres unmarked) [ONC0000291, benproperine phosphate]	109.2%
CC(O)(P(=O)(O)O)P(=O)(O)O [ONC0003924, etidronate disodium]	67.43%
CCCCCCCCCCCCCC(=O)OC(C)C [ONC0002797, isopropyl myristate]	114%
Cc1n[nH]c(C)c1Cc1sc2c(c1C(=O)N1C[C@H](O)CO1)c(=O)n(C)c(=O)n2CC(C)C [ONC0001268, arc155858]	79.96%
CC(=C\c1ccc(Cl)cc1)/C(C)=N/O [ONC0000836, ap18]	83.86%
CCC1NC(=O)c2cc(S(N)(=O)=O)c(Cl)cc2N1 (centres unmarked) [ONC0002418, quinethazone]	111.4%
Nc1ncnc2c1C(=O)N(c1ccc([C@H]3CC[C@H](CC(=O)O)CC3)cc1)CCO2 [ONC0000931, pf04620110]	63.19%
COc1ccccc1N1CCN(CCCCNC(=O)c2ccc3ccccc3c2)CC1 [ONC0002951, bp897]	81.63%
Cc1ncc(COP(=O)(O)O)c(C=O)c1O [ONC0005433, mc1]	91.13%
Cc1ccc2c(=O)c3ccccc3n(CCCN)c2c1C [ONC0001338, er27319 maleate]	111.3%
CN(Cc1cnc2nc(N)nc(N)c2n1)c1ccc(C(=O)N[C@@H](CCC(=O)O)C(=O)O)cc1 [ONC0000455, methotrexate hydrate]	76.36%
CNC(C)CCC=C(C)C (centres unmarked) [ONC0002934, isometheptenemucate]	66.34%
O=C(COc1ccc(Cl)cc1)N1CCN(Cc2ccc3c(c2)OCO3)CC1 [ONC0003121, fipexide hydrochloride]	94.56%
CCN(CC)CCNc1ccc(CO)c2sc3ccccc3c(=O)c12 [ONC0002180, hycanthone]	64.05%
CCOc1ccc2nc3cc(N)ccc3c(N)c2c1 [ONC0004254, ethacridine lactate]	71.68%
CC(=O)OC[C@H]1O[C@@](COC(C)=O)(O[C@H]2O[C@H](COC(C)=O)[C@@H](OC(C)=O)[C@H](OC(C)=O)[C@H]2OC(C)=O)[C@@H](OC(C)=O)[C@@H]1OC(C)=O [ONC0002776, sucrose octaacetate]	73.57%
NC(=O)c1nc[nH]c1O [ONC0003682, 5hydroxy1himidazole4carboxamide]	60.3%
COc1cccc(CN(C(=O)CC(C)(C)C)[C@H]2C[C@@H](C(=O)N3CCNCC3)N(Cc3ccc4c(c3)OCO4)C2)c1 [ONC0003277, cur61414]	81.81%
Nc1cc(F)ccc1NC(=O)/C=C/c1cnn(C/C=C/c2ccccc2)c1 [ONC0005178, rgfp966]	94.52%
Nc1nc(NC2CC2)c2ncn([C@H]3C=C[C@@H](CO)C3)c2n1 [ONC0000483, abacavir sulfate]	70.44%
